Reference: publication PMC2944796
Results are given in words; binding and its absence hold for the method and conditions named. Binding seen in cells or lysates may run through a third protein. Binding calls can cover weak binding; strength is not graded here. Tags and fused reporters may be left off the sequences shown.

Biological target: T1, Flag-DIM-5 (N. crassa) (UniProt Q8X225)
T1 sequence: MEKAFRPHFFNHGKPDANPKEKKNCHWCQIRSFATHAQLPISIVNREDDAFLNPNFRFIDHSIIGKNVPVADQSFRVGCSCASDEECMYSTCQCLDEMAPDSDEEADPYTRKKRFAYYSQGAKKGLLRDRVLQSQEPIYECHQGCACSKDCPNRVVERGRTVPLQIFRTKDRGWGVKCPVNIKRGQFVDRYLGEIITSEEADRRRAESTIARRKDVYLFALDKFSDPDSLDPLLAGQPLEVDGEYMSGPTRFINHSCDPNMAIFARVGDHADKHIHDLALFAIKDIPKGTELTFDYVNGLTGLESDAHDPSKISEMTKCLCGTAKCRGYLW
Test: co-IP; Flag antibody immunoprecipitation from N. crassa strains coexpressing Flag-DIM-5 and Myc-DCAF26 (wild type or mutant)

Substance	binding
Myc-His-DCAF26 (N. crassa)	binds
Myc-DCAF26R976A (N. crassa)	binds
